The record followed here is patent US20260345771A1, “THERAPY COMPRISING ANTI-CD19 ANTIBODY AND EZH2 MODULATORS” (Incyte Corporation, priority 2022, published 2026).

The test system of one test is SU-DHL-4 cells. Description: CellTiter-Glo (CTG) viability assay, SU-DHL-4. Format: cell-based. The conditions noted are these: Homo sapiens, SU-DHL-4, 168 h. How it is done: (§1) A panel of 6 lymphoma cell lines was included in the analysis (5 DLBCL and 1 Burkitt lymphoma). All cell lines were cultured in RPMI 1640 medium (Gibco) supplemented with 10%-20% FCS (Sigma) at 37 °C in 5% CO2.
(§2) To analyze direct cytotoxic and anti-proliferative effects on target cells, cell viability assays were performed using the CellTiter-Glo Kit (Promega), a luminescence assay for determination of viable cell number based on quantification of adenosine triphosphate (ATP) levels. […]
(§3) Cell viability was analyzed according to the manufacturer's protocol using the Tecan Infinite F500 plate reader. The relative viable cell count was calculated from the measured relative luminescence units (RLU) with the following equation: […]
(§4) For graphical illustration and IC50 determination, the mean values of triplicates (viability assay) or duplicates (CD19 expression) of the individual experiments were imported into GraphPad Prism software (version 8). […] IC50 curves were determined applying a non-linear regression curve fit model (sigmoidal dose response, variable slope). […]
(§5) The grand mean RLU values were calculated for. • untreated samples via e^μ • tafasitamab treated samples via e^(μ+α) • Compound 1 treated samples via e^(μ+β) • tafasitamab+Compound 1 treated samples via e^(μ+α+β+αβ) […]

The next test has as its system SU-DHL-6 cells. The test can be described thus: CellTiter-Glo (CTG) viability assay, SU-DHL-6. Format: cell-based. The conditions noted are these: Homo sapiens, 168 h; SU-DHL-6, 7 days, compound alone. As to the method: as §1, §2, §3, §4, §5

Regarding `CCN(c1cc(-c2ccc(CN3CCOCC3)cc2)cc(C(=O)NCc2c(C)cc(C)[nH]c2=O)c1C)C1CCOCC1` [tazemetostat, reference compound], the IC50 in the test with SU-DHL-4 cells stood at 792 nM; with SU-DHL-6 cells it was 97.4 nM.
